Results as given in US20170144969A1, “ANT[…], METHOD FOR PRODUCTION AND USES THEREOF” (priority 2014, published 2017).
For at least one compound, name, drawing or mass did not settle the structure. Some of these results come from one statement about several compounds together. Some compounds share one range, which may span the group rather than tell each member.

Assays:
E. coli (MTCC 443) = test: Minimum Inhibitory Concentration, micro-dilution broth; format: cell-based; details: 24 h, 37° C.
[1] = system: Enterococcus faecium (ATCC 19634); test: as above; format: cell-based; details: 24 h, 37° C.
S. aureus (MTCC 737) = test: as above; format: cell-based, Staphylococcus aureus; details: 24 h, 37° C.
S. aureus biofilms = test: Bacterial biofilm disruption (pre-formed biofilm); format: cell-based; details: 64×MIC, 24 h

CCCCCCCCCCCCCCCC(=O)N(CCCNC(=O)[C@@H](N)CCCN)CCCNC(=O)[C@@H](N)CCCN.O=C(O)C(F)(F)F.O=C(O)C(F)(F)F [Compound 15, N,N-bis-[{3-(^LOrn)amino}propyl]hexadecanamide bis(trifluoroacetate)]
Minimum Inhibitory Concentration E. coli (E. coli (MTCC 443)): 4 to 6 µM | Minimum Inhibitory Concentration E. faceium [1]: 2 to 5 µM

CCCCCCCCCCCCCCCC(=O)N(CCCNC(=O)[C@H](N)CCCCN)CCCNC(=O)[C@H](N)CCCCN.O=C(O)C(F)(F)F.O=C(O)C(F)(F)F [Compound 17, N,N-bis-[{3-(^DLys)amino}propyl]hexadecanamide bis(trifluoroacetate)]
Minimum Inhibitory Concentration E. coli (E. coli (MTCC 443)): 4 to 6 µM | Minimum Inhibitory Concentration E. faceium [1]: 2 to 5 µM | Minimum Inhibitory Concentration S. aureus (S. aureus (MTCC 737)): 2 to 5 µM

CCCCCCCCCCCCCC(=O)N(CCCNC(=O)[C@H](N)CCCCN)CCCNC(=O)[C@H](N)CCCCN.O=C(O)C(F)(F)F.O=C(O)C(F)(F)F [Compound 16, N,N-bis-[{3-(^DLys)amino}propyl]tetradecanamide bis(trifluoroacetate)]
Minimum Inhibitory Concentration E. coli (E. coli (MTCC 443)): 4 to 6 µM

CCCCCCCCCCCCCCCC(=O)N(CCCNC(=O)[C@@H](N)CCCCN)CCCNC(=O)[C@@H](N)CCCCN.O=C(O)C(F)(F)F.O=C(O)C(F)(F)F [Compound 12, N,N-bis-[{3-(^LLys)amino}propyl]hexadecanamide bis(trifluoroacetate)]
Minimum Inhibitory Concentration E. coli (E. coli (MTCC 443)): 4 to 6 µM

CCCCCCCCCCCCCC(=O)N(CCCNC(=O)[C@@H](N)Cc1c[nH]c2ccccc12)CCCNC(=O)[C@@H](N)Cc1c[nH]c2ccccc12.O=C(O)C(F)(F)F.O=C(O)C(F)(F)F [Compound 7, N,N-bis-[{3-(^LTrp)amino}propyl]tetradecanamide bis(trifluoroacetate)]
Minimum Inhibitory Concentration E. faceium [1]: 2 to 5 µM | Minimum Inhibitory Concentration S. aureus (S. aureus (MTCC 737)): 2 to 5 µM

CN(C)[C@@H]1C(O)=C(C(N)=O)C(=O)[C@@]2(O)C(O)=C3C(=O)c4c(O)cccc4[C@@](C)(O)[C@H]3C[C@@H]12 [tetracycline, reference compound]
reduction of cell viability in pre-existing biofilms (S. aureus biofilms): none of the antibiotics showed significant reduction

CCCCCCCCCCCCCC(=O)N(CCCNC(=O)[C@@H](N)CCCCN)CCCNC(=O)[C@@H](N)CCCCN.O=C(O)C(F)(F)F.O=C(O)C(F)(F)F [Compound 11, N,N-bis-[{3-(^LLys)amino}propyl]tetradecanamide bis(trifluoroacetate)]
Minimum Inhibitory Concentration E. coli (E. coli (MTCC 443)): 4 to 6 µM
